The values that follow come from patent publication US6919204B2, “Modulation of gene expression using localization domains” (Sangamo Biosciences, Inc., priority 2000, dated 2005).

For this experiment, the target named is MTA1-like (Drosophila). The experiment is described as follows: co-elution on Superose 6 gel filtration (about 1 MDa) after BioRex 70 and MonoQ, immunoblot.

These are yes or no findings as the source states them, for the method shown. In cells and extracts the contact can be indirect. Binding calls can cover weak binding; strength is not graded here.

B1: Drosophila MBD-likeΔ (protein)
chain: MQMNPSVTIERKRVDCSVLPKGWQRDEVRKSGSSANNNASSNNNSSATASSNNNNNKVDVFYYSRALRTDVSLVPPIRQTASIFKQPVTVIRNHKQDPAKAKNEPKHGTREKPKQLFWEKRLERLRACHDSGEELDDISLPKTIRTVGPNVNEQTVLQSVATALHMLNAGVHGQSSTKADLTKNAMAFMNPEQPLMHAVIISEDDIRKQEDRVGVARRKLQDALKT
B1: the binding entry was “binds”.
